# Measurements as given in PMC7873974.
# By UniProt entry, the sequences of proteins in these tests, tags left out. Where a name states a change or a piece, a line headed by the entry shows the natural chain unless it says otherwise.
# UniProt A0A059T907: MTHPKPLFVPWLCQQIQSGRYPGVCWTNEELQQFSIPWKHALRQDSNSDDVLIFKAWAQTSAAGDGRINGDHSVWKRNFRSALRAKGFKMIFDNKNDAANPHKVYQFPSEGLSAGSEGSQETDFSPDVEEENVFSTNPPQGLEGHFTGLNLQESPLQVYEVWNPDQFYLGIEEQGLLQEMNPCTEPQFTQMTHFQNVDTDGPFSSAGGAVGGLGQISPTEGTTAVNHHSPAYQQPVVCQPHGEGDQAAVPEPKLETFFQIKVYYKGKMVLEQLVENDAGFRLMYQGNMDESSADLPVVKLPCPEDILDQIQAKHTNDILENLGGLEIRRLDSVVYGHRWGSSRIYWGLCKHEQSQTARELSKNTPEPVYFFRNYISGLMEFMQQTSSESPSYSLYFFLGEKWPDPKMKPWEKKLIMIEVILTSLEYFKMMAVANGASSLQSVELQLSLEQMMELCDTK
# Molecular target: CiPPP1R3G-Flag (grass carp PPP1R3G, regulatory subunit of protein phosphatase 1) (grass carp (Ctenopharyngodon idella))
# Assay: co-IP; HEK293T cells co-transfected with CiPPP1R3G-Flag and CiIRF3-Myc (control: pCMV-FLAG and CiIRF3-Myc); lysis buffer 1% NP-40, 50 mM Tris-HCl pH 7.5, 150 mM NaCl, 1 mM EDTA, 0.25% sodium deoxycholate; lysate with anti-Flag agarose beads overnight at 4°C; immunoblot with anti-Flag and anti-Myc
substance,measurement,value
CiIRF3-Myc (grass carp IRF3) (from UniProt A0A059T907),binding,binds

# Results are given in words; binding and its absence hold for the method and conditions named. Binding seen in cells or lysates may run through a third protein. A result given as binding can be weak or reduced; the word gives no strength.
